# Data reported in publication PMC8953949, “Identifying Function Determining Residues in Neuroimmune Semaphorin 4A” (International Journal of Molecular Sciences, 2022).
# Protein sequences, listed by entry. Tags and fused reporters are not part of them. Residues count along the entry.
# UniProt Q92854, residues 22-734: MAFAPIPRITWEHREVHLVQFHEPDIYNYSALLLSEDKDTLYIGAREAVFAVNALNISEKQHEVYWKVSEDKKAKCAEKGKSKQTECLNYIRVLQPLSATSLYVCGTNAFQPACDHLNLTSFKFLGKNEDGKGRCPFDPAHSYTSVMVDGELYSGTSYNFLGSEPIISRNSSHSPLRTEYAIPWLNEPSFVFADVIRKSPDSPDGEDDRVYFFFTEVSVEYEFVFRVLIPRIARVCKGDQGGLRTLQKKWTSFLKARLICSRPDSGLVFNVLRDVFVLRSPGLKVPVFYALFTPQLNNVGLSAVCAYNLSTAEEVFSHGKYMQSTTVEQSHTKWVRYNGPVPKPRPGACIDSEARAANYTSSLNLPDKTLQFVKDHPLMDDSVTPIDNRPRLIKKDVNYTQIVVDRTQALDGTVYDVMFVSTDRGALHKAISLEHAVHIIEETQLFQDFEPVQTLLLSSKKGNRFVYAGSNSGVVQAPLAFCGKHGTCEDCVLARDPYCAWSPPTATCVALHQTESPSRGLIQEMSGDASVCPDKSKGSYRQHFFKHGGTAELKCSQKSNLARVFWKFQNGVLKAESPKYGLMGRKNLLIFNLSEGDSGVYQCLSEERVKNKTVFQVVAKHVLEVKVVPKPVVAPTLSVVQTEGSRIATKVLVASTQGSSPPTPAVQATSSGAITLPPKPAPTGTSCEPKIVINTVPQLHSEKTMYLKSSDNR
# These are yes or no findings as the source states them, for the method shown. Some entries that bind do so weakly or less than the wild type. Tags and fused reporters may be left off the sequences shown.
# Legend:
# [1] = molecular target: T1, recombinant human Plexin B1 with a 6X His tag at C-terminus (human) (UniProt O43157); assay: ELISA; competition LRA ELISA; Plexin B1-His on HIS-Select nickel-coated microplates, 2 ug/mL Sema4D with increasing concentrations of Sema4A starting at 2 ug/mL; OD compared with Sema4D alone; both purified
# T1 sequence: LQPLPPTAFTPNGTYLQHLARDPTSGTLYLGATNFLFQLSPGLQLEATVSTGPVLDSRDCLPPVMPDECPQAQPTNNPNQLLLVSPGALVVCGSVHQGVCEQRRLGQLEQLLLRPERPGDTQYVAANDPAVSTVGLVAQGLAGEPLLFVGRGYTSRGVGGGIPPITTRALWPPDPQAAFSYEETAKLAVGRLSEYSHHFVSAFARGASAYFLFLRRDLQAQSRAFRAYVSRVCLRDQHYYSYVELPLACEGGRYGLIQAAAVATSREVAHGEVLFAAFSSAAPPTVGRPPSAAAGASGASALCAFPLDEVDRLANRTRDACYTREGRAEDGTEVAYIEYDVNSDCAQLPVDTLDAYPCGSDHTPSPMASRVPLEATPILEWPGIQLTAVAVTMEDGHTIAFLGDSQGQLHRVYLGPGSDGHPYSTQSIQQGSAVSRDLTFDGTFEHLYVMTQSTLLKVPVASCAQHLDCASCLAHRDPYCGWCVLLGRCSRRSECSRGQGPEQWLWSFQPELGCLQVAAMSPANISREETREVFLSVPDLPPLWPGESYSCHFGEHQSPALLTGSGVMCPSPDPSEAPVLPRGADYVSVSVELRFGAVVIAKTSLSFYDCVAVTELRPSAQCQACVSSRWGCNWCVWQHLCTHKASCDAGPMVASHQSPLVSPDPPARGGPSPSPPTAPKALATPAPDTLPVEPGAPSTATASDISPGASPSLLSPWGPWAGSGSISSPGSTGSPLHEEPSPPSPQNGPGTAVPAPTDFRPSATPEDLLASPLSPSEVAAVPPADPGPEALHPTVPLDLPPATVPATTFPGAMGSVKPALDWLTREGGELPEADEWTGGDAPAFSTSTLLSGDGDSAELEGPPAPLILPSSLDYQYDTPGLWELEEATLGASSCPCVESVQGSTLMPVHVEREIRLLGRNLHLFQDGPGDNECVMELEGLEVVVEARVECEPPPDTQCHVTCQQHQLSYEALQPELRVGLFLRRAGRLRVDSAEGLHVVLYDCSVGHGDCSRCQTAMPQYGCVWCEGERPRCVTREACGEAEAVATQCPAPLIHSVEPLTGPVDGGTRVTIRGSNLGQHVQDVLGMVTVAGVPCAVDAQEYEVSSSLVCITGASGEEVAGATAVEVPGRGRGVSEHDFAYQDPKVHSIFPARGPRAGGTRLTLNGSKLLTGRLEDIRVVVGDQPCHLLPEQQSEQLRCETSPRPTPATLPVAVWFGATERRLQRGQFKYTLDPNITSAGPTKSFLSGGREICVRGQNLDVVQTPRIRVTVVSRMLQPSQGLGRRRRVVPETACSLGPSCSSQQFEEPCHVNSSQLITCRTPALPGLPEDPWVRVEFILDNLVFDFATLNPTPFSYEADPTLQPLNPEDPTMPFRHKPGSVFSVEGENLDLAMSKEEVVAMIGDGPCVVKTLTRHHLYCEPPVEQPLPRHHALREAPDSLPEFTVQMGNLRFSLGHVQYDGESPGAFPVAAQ
# [2] = molecular target: T1, recombinant human Plexin B1 with a 6X His tag at C-terminus (human); assay: ELISA; direct LRA ELISA; Plexin B1-His (10 ug/mL) captured on HIS-Select nickel-coated microplates in Tris buffer overnight, Sema4 in solution in varying doses from 2 ug/mL; both purified
substance,measurement,setting,value
recombinant human Sema4D-Fc (from UniProt Q92854 22-734) (Fc fusion),binding,[1],binds
same,binding,[2],binds
